Test results from paper PMC10746276.

Chains of the proteins cited; added tags and fusions are not shown. Lines headed by an entry give the natural chain unless they say otherwise; changes in a name come on top.
UniProt P69913: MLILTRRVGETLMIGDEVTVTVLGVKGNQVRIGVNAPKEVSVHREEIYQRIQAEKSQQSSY

Key:
[1] = target: CsrA-His6 (Escherichia coli) (UniProt P69913); assay: competition with a labelled probe; details: EMSA: 0.1 nM RNA, 10 mM MgCl2, 100 mM KCl, 32.5 ng yeast RNA, 20 mM DTT, 7.5% glycerol, 4 U SUPERasin, 30 min 37 C (pH not given), recombinant protein, protein details: His6 (C-terminal by name), label: 5'-32P, letters put together from the description
[2] = target: CsrA-His6 (Escherichia coli) (UniProt P69913); assay: EMSA; details: EMSA: 0.1 nM RNA, 10 mM MgCl2, 100 mM KCl, 32.5 ng yeast RNA, 20 mM DTT, 7.5% glycerol, 4 U SUPERasin, 30 min 37 C (pH not given); recombinant protein; protein details: His6 (C-terminal by name); label: 5'-32P; letters put together from the description

GGGUUUUACGCAAAUGGAGAACGAGAAUGUCUAAUCAG [elaB leader WT]
binding result ([1]; unlabeled self vs labeled elaB): binds

GGGCGGUGGUUAACACUACCGCUUCGUUGUCUGGACAAUCGUUCCUUUGUAAUAGGUCCGAAUCACAAUGGAAGGUUCAAGAAUGAAAUACCGCAUCGCUUUAGCUGUU [yqjC leader WT]
binding result ([1]; unlabeled self vs labeled yqjC): binds

GGGCGGUGGUUAACACUACCGCUUCGUUGUCUGGACAAUCGUUCCUUUGUAAUAGGUCCGAAUCACAAUAAAAGGUUCAAGAAUGAAAUACCGCAUCGCUUUAGCUGUU [yqjC leader GGA2 mutant (GGA to AAA)]
Kd [2]: > 600 nM

The exact form of at least one protein or probe is not confirmed. For part of these data: At least one verdict rests on a figure or table, not on a statement of the authors.
